Data as given in article PMC4416337.
No constants are given. Whether binding was seen depends on the method and setting. Binding seen in cells or lysates may run through a third protein. Some entries that bind do so weakly or less than the wild type. Where a sequence is shown, tags or fusion partners need not be part of it.

B1: 35S-labelled IDD8 polypeptides produced by in vitro translation (protein, UniProt Q9FFH3 1-466)
chain: MTSEVLQTISSGSGFAQPQSSSTLDHDESLINPPLVKKKRNLPGNPDPEAEVIALSPTTLMATNRFLCEVCGKGFQRDQNLQLHRRGHNLPWKLKQRTSKEVRKRVYVCPEKTCVHHHSSRALGDLTGIKKHFCRKHGEKKWTCEKCAKRYAVQSDWKAHSKTCGTREYRCDCGTIFSRRDSFITHRAFCDALAEETAKINAVSHLNGLAAAGAPGSVNLNYQYLMGTFIPPLQPFVPQPQTNPNHHHQHFQPPTSSSLSLWMGQDIAPPQPQPDYDWVFGNAKAASACIDNNNTHDEQITQNANASLTTTTTLSAPSLFSSDQPQNANANSNVNMSATALLQKAAEIGATSTTTAATNDPSTFLQSFPLKSTDQTTSYDSGEKFFALFGSNNNIGLMSRSHDHQEIENARNDVTVASALDELQNYPWKRRRVDGGGEVGGGGQTRDFLGVGVQTLCHPSSINGWI
modifications: [35S] methionine-labeled
B2: N-terminal half of yellow fluorescent protein fused to IDD8 (protein, UniProt Q9FFH3 1-466)
chain: B1 chain

What was measured:
[1] = target: T1, recombinant glutathione S-transferase-AKIN11 fusion protein (Arabidopsis thaliana) (UniProt P92958); test: pull-down; in vitro pull-down: recombinant GST fusions (or GST alone) as bait, 35S-labelled in vitro translated IDD8 as prey; bound proteins eluted by boiling in SDS-PAGE loading buffer, SDS-PAGE and autoradiography; only the target purified
T1 sequence: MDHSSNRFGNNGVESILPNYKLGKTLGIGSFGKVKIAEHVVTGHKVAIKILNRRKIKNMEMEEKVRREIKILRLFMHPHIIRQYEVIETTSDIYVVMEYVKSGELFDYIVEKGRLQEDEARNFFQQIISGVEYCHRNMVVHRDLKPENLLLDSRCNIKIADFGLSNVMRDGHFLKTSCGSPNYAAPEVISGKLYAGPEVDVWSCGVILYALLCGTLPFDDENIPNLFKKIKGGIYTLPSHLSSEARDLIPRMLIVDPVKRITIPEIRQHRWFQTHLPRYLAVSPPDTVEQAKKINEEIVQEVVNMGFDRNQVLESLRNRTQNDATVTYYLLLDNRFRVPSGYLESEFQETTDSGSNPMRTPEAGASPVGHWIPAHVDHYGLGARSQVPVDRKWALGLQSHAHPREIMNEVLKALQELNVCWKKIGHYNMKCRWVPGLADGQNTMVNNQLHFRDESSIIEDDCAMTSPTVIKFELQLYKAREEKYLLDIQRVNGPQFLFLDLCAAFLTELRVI

[2] = target: T2, C-terminal half of YFP fused to AKIN11 (Arabidopsis thaliana) (UniProt P92958); test: split reporter; BiFC: nYFP and cYFP fusions cotransfected into Arabidopsis mesophyll protoplasts (PEG-calcium), 23°C for 16 h, confocal microscopy; CFP-ICE1 as nuclear marker
T2 sequence: T1 sequence

Binder	binding [1]	binding [2]
B1	binds	–
B2	–	binds
